{"sequences": {"note": "Protein sequences, listed by entry. Tags and fused reporters are not part of them. Residues count along the entry.", "UniProt P02768, 25-609": "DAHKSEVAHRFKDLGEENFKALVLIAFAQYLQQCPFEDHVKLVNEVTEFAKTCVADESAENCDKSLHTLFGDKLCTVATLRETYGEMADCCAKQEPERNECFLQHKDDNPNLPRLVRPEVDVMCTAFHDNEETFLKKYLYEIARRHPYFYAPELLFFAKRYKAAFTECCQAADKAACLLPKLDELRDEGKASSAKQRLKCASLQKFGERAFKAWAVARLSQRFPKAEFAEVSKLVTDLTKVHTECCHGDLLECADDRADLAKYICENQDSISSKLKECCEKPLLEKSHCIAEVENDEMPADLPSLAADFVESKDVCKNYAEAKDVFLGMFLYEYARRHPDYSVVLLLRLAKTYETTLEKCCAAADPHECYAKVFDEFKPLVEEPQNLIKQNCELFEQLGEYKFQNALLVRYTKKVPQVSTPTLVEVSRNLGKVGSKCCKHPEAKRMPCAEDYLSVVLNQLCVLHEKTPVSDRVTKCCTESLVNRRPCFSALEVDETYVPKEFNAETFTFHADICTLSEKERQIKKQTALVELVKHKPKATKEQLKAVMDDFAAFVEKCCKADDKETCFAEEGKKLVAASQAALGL"}, "source": "patent US9387198B1", "about": "(priority 2015, dated 2016)", "biological_target": "T1, human serum albumin (HSA) (Homo sapiens, UniProt P02768)", "T1 construct": "purchased Sigma Aldrich, St. Louis, Mo., USA", "assay": "Fluorescence-based anti-glycation assay (fructose-mediated glycation of HSA)", "assay_type": "biochemical", "settings": "compared to reference compound rutin", "method": "Prior to incubation, rutin (reference compound) and 6-nitrobenzimidazole derivatives were added to a reaction mixture to a final concentration of 1 mM. DMSO was used as a solvent (final concentration: 10%) in this assay.\nPercentage Inhibition=(1−Fluorescence of test compounds/Fluorescence of glycated-HSA)×100 Where, Test compounds=6-Nitrobenzimidazole derivatives", "note": "Some entries share one result that the patent states for a list of compounds.", "data": [{"smiles": "O=[N+]([O-])c1ccc(-c2nc3ccc([N+](=O)[O-])cc3[nH]2)cc1", "note": "[Compound 9, 6-Nitro-2-(4-nitrophenyl)-1H-benzimidazole]", "values": [{"measurement": "anti-glycation activity (in words)", "value": "moderate anti-glycation activity"}]}]}
